{
  "source": "the supplement of paper PMC8728848",
  "binders": {"B1": {"name": "PEB1 (Campylobacter jejuni), Q0P9X8 (protein)", "chain": "MVFRKSLLKLAVFALGACVAFSNANAAEGKLESIKSKGQLIVGVKNDVPHYALLDQATGEIKGFEVDVAKLLAKSILGDDKKIKLVAVNAKTRGPLLDNGSVDAVIATFTITPERKRIYNFSEPYYQDAIGLLVLKEKKYKSLADMKGANIGVAQAATTKKAIGEAAKKIGIDVKFSEFPDYPSIKAALDAKRVDAFSVDKSILLGYVDDKSEILPDSFEPQSYGIVTKKDDPAFAKYVDDFVKEHKNEIDALAKKWGL"}},
  "assay_in_all_cases": "glycan array binding signal (z-score within array); higher = stronger binding",
  "details_in_all_cases": "glycan notation: IUPAC condensed, linker removed",
  "key": {"Gal(a1-3)Gal(b1-3)GlcNAc": {"target": "Gal(a1-3)Gal(b1-3)GlcNAc", "outline": "(§1)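 Glycan array binding is given as a within-array Z-score, which can be read as non-binding when negative. The arrays, 3228 of them, came from the Consortium for Functional Glycomics database and were retained only where the protein sequence was available. Z-scores were averaged across arrays of the same protein sequence at different concentrations or buffers and across linkers.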"}, "[1]": {"target": "Gal(a1-3)Gal(b1-3)GlcNAc(b1-2)Man(a1-3)[Gal(a1-3)Gal(b1-3)GlcNAc(b1-2)Man(a1-6)]Man(b1-4)GlcNAc(b1-4)GlcNAc", "outline": "as §1"}, "[2]": {"target": "Gal(a1-3)Gal(b1-3)[Fuc(a1-4)]GlcNAc(b1-2)Man(a1-3)[Gal(a1-3)Gal(b1-3)[Fuc(a1-4)]GlcNAc(b1-2)Man(a1-6)]Man(b1-4)GlcNAc(b1-4)GlcNAc", "outline": "as §1"}, "Gal(a1-3)Gal(b1-4)Glc": {"target": "Gal(a1-3)Gal(b1-4)Glc", "outline": "as §1"}, "Gal(a1-3)Gal(b1-4)GlcNAc": {"target": "Gal(a1-3)Gal(b1-4)GlcNAc", "outline": "as §1"}, "[3]": {"target": "Gal(a1-3)Gal(b1-4)GlcNAc(b1-3)GalNAc", "outline": "as §1"}, "[4]": {"target": "Gal(a1-3)Gal(b1-4)[Fuc(a1-3)]GlcNAc", "outline": "as §1"}, "[5]": {"target": "Gal(a1-3)Gal(b1-4)[Fuc(a1-3)]GlcNAc(b1-2)Man(a1-3)[Gal(a1-3)Gal(b1-4)[Fuc(a1-3)]GlcNAc(b1-2)Man(a1-6)]Man(b1-4)GlcNAc(b1-4)GlcNAc", "outline": "as §1"}, "Gal(a1-3)GalNAc": {"target": "Gal(a1-3)GalNAc", "outline": "as §1"}, "[6]": {"target": "Gal(a1-3)[Gal(a1-4)]Gal(b1-4)GlcNAc", "outline": "as §1"}, "[7]": {"target": "Gal(a1-4)Gal(b1-3)GlcNAc(b1-2)Man(a1-3)[Gal(a1-4)Gal(b1-3)GlcNAc(b1-2)Man(a1-6)]Man(b1-4)GlcNAc(b1-4)GlcNAc", "outline": "as §1"}, "Gal(a1-4)Gal(b1-4)Glc": {"target": "Gal(a1-4)Gal(b1-4)Glc", "outline": "as §1"}, "Gal(a1-4)Gal(b1-4)GlcNAc": {"target": "Gal(a1-4)Gal(b1-4)GlcNAc", "outline": "as §1"}, "[8]": {"target": "Gal(a1-4)Gal(b1-4)GlcNAc(b1-2)Man(a1-3)[Gal(a1-4)Gal(b1-4)GlcNAc(b1-2)Man(a1-6)]Man(b1-4)GlcNAc(b1-4)GlcNAc", "outline": "as §1"}, "[9]": {"target": "Gal(a1-4)Gal(b1-4)GlcNAc(b1-3)Gal(b1-4)Glc", "outline": "as §1"}, "Gal(a1-4)GlcNAc": {"target": "Gal(a1-4)GlcNAc", "outline": "as §1"}, "Gal(a1-6)Glc": {"target": "Gal(a1-6)Glc", "outline": "as §1"}, "Gal(b1-2)Gal": {"target": "Gal(b1-2)Gal", "outline": "as §1"}, "Gal(b1-3)Gal": {"target": "Gal(b1-3)Gal", "outline": "as §1"}, "Gal(b1-3)Gal(b1-4)GlcNAc": {"target": "Gal(b1-3)Gal(b1-4)GlcNAc", "outline": "as §1"}, "[10]": {"target": "Gal(b1-3)Gal(b1-4)GlcNAc(b1-2)Man(a1-3)[Gal(b1-3)Gal(b1-4)GlcNAc(b1-2)Man(a1-6)]Man(b1-4)GlcNAc(b1-4)GlcNAc", "outline": "as §1"}, "Gal(b1-3)GalNAc": {"target": "Gal(b1-3)GalNAc", "outline": "as §1"}, "[11]": {"target": "Gal(b1-3)GalNAc(a1-3)[Fuc(a1-2)]Gal(b1-4)Glc", "outline": "as §1"}, "[12]": {"target": "Gal(b1-3)GalNAc(a1-3)[Fuc(a1-2)]Gal(b1-4)GlcNAc", "outline": "as §1"}, "[13]": {"target": "Gal(b1-3)GalNAc(b1-3)Gal(a1-4)Gal(b1-4)Glc", "outline": "as §1"}, "[14]": {"target": "Gal(b1-3)GalNAc(b1-4)Gal(b1-4)Glc", "outline": "as §1"}, "[15]": {"target": "Gal(b1-3)GalNAc(b1-4)[Neu5Ac(a2-3)]Gal(b1-4)Glc", "outline": "as §1"}, "Gal(b1-3)GlcNAc": {"target": "Gal(b1-3)GlcNAc", "outline": "as §1"}, "[16]": {"target": "Gal(b1-3)GlcNAc(a1-6)Gal(b1-4)GlcNAc", "outline": "as §1"}, "[17]": {"target": "Gal(b1-3)GlcNAc(b1-2)Man(a1-3)[Gal(b1-3)GlcNAc(b1-2)Man(a1-6)]Man(b1-4)GlcNAc(b1-4)GlcNAc", "outline": "as §1"}, "[18]": {"target": "Gal(b1-3)GlcNAc(b1-2)Man(a1-3)[Gal(b1-3)GlcNAc(b1-2)Man(a1-6)]Man(b1-4)GlcNAc(b1-4)[Fuc(a1-6)]GlcNAc", "outline": "as §1"}, "[19]": {"target": "Gal(b1-3)GlcNAc(b1-3)Gal(b1-3)GlcNAc", "outline": "as §1"}, "[20]": {"target": "Gal(b1-3)GlcNAc(b1-3)Gal(b1-4)Glc", "outline": "as §1"}, "[21]": {"target": "Gal(b1-3)GlcNAc(b1-3)Gal(b1-4)GlcNAc", "outline": "as §1"}, "[22]": {"target": "Gal(b1-3)GlcNAc(b1-3)Gal(b1-4)GlcNAc(b1-6)[Gal(b1-3)GlcNAc(b1-3)]Gal(b1-4)Glc", "outline": "as §1"}, "[23]": {"target": "Gal(b1-3)GlcNAc(b1-3)Gal(b1-4)[Fuc(a1-3)]GlcNAc(b1-6)[Gal(b1-3)GlcNAc(b1-3)]Gal(b1-4)Glc", "outline": "as §1"}, "[24]": {"target": "Gal(b1-3)GlcNAc(b1-3)GalNAc", "outline": "as §1"}, "[25]": {"target": "Gal(b1-3)GlcNAc(b1-6)Gal(b1-4)GlcNAc", "outline": "as §1"}},
  "note": "Some of the results follow.",
  "data": [
    {"binder": "B1", "values": [
      {"measurement": "glycan array binding signal (z-score)", "setting": "Gal(a1-3)Gal(b1-3)GlcNAc", "result": -0.812},
      {"measurement": "glycan array binding signal (z-score)", "setting": "[1]", "result": 2.15},
      {"measurement": "glycan array binding signal (z-score)", "setting": "[2]", "result": 3.87},
      {"measurement": "glycan array binding signal (z-score)", "setting": "Gal(a1-3)Gal(b1-4)Glc", "result": -0.309},
      {"measurement": "glycan array binding signal (z-score)", "setting": "Gal(a1-3)Gal(b1-4)GlcNAc", "result": -0.763},
      {"measurement": "glycan array binding signal (z-score)", "setting": "[3]", "result": -0.427},
      {"measurement": "glycan array binding signal (z-score)", "setting": "[4]", "result": 0.359},
      {"measurement": "glycan array binding signal (z-score)", "setting": "[5]", "result": 0.215},
      {"measurement": "glycan array binding signal (z-score)", "setting": "Gal(a1-3)GalNAc", "result": -0.041},
      {"measurement": "glycan array binding signal (z-score)", "setting": "[6]", "result": -0.307},
      {"measurement": "glycan array binding signal (z-score)", "setting": "[7]", "result": -0.8},
      {"measurement": "glycan array binding signal (z-score)", "setting": "Gal(a1-4)Gal(b1-4)Glc", "result": -0.339},
      {"measurement": "glycan array binding signal (z-score)", "setting": "Gal(a1-4)Gal(b1-4)GlcNAc", "result": 0.544},
      {"measurement": "glycan array binding signal (z-score)", "setting": "[8]", "result": 3.37},
      {"measurement": "glycan array binding signal (z-score)", "setting": "[9]", "result": -0.039},
      {"measurement": "glycan array binding signal (z-score)", "setting": "Gal(a1-4)GlcNAc", "result": 1.09},
      {"measurement": "glycan array binding signal (z-score)", "setting": "Gal(a1-6)Glc", "result": 0.364},
      {"measurement": "glycan array binding signal (z-score)", "setting": "Gal(b1-2)Gal", "result": 0.469},
      {"measurement": "glycan array binding signal (z-score)", "setting": "Gal(b1-3)Gal", "result": -0.141},
      {"measurement": "glycan array binding signal (z-score)", "setting": "Gal(b1-3)Gal(b1-4)GlcNAc", "result": -0.294},
      {"measurement": "glycan array binding signal (z-score)", "setting": "[10]", "result": 0.339},
      {"measurement": "glycan array binding signal (z-score)", "setting": "Gal(b1-3)GalNAc", "result": -0.474},
      {"measurement": "glycan array binding signal (z-score)", "setting": "[11]", "result": 0.105},
      {"measurement": "glycan array binding signal (z-score)", "setting": "[12]", "result": -1.06},
      {"measurement": "glycan array binding signal (z-score)", "setting": "[13]", "result": 0.027},
      {"measurement": "glycan array binding signal (z-score)", "setting": "[14]", "result": 1.58},
      {"measurement": "glycan array binding signal (z-score)", "setting": "[15]", "result": 0.795},
      {"measurement": "glycan array binding signal (z-score)", "setting": "Gal(b1-3)GlcNAc", "result": -0.055},
      {"measurement": "glycan array binding signal (z-score)", "setting": "[16]", "result": -0.33},
      {"measurement": "glycan array binding signal (z-score)", "setting": "[17]", "result": -0.715},
      {"measurement": "glycan array binding signal (z-score)", "setting": "[18]", "result": -0.287},
      {"measurement": "glycan array binding signal (z-score)", "setting": "[19]", "result": -0.245},
      {"measurement": "glycan array binding signal (z-score)", "setting": "[20]", "result": 0.682},
      {"measurement": "glycan array binding signal (z-score)", "setting": "[21]", "result": 0.523},
      {"measurement": "glycan array binding signal (z-score)", "setting": "[22]", "result": 0.831},
      {"measurement": "glycan array binding signal (z-score)", "setting": "[23]", "result": -0.346},
      {"measurement": "glycan array binding signal (z-score)", "setting": "[24]", "result": -0.491},
      {"measurement": "glycan array binding signal (z-score)", "setting": "[25]", "result": -0.047}
    ]}
  ]
}
